Experimental data reported in article PMC8599755.
No constants are given. Whether binding was seen depends on the method and setting. Binding seen in cells or lysates may run through a third protein. Some results given as binding are weak or reduced against the parent protein; the word gives no strength. Sequences can lack the tags named with a protein.

Biological target: T1, Flag-RBM6 (UniProt P78332)
T1 sequence: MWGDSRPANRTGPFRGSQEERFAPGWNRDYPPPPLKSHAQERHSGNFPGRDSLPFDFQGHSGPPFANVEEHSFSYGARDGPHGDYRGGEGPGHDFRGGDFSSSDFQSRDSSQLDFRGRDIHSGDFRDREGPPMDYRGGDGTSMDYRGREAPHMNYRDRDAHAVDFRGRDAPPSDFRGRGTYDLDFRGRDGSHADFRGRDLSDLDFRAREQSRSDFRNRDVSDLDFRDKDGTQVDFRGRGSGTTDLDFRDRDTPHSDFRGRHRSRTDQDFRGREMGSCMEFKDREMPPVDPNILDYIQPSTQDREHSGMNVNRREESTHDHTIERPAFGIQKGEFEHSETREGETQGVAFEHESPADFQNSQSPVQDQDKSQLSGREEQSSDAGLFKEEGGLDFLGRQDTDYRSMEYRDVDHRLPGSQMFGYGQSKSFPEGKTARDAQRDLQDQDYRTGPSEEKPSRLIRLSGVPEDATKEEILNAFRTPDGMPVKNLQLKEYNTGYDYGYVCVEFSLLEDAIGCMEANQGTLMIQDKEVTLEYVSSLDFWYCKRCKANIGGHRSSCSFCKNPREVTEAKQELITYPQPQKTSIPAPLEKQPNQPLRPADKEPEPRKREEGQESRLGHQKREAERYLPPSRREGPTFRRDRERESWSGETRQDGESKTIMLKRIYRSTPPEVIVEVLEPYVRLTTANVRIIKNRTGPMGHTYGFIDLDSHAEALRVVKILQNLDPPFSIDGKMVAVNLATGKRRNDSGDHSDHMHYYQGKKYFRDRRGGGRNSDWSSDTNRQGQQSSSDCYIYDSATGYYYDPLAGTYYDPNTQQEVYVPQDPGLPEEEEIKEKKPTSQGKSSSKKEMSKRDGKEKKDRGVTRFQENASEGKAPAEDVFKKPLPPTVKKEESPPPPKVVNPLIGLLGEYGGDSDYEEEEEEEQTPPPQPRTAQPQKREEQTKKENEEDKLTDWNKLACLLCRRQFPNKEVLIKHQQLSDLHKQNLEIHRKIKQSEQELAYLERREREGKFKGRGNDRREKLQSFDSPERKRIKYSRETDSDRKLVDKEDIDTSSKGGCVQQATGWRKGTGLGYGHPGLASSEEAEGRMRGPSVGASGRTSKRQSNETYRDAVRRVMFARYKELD
Assay: co-IP; HCT116 cells co-transfected with Flag-RBM6 and Myc-RNPS1, harvested 36 h later, lysed in NP-40 containing buffer with protease inhibitors; 1.5 mg proteins immunoprecipitated with 1.5 ug flag antibody; western blot

B1: Myc-RNPS1 (protein, UniProt Q15287 1-305)
chain: MDLSGVKKKSLLGVKENNKKSSTRAPSPTKRKDRSDEKSKDRSKDKGATKESSEKDRGRDKTRKRRSASSGSSSTRSRSSSTSSSGSSTSTGSSSGSSSSSASSRSGSSSTSRSSSSSSSSGSPSPSRRRHDNRRRSRSKSKPPKRDEKERKRRSPSPKPTKVHIGRLTRNVTKDHIMEIFSTYGKIKMIDMPVERMHPHLSKGYAYVEFENPDEAEKALKHMDGGQIDGQEITATAVLAPWPRPPPRRFSPPRRMLPPPPMWRRSPPRMRRRSRSPRRRSPVRRRSRSPGRRRHRSRSSSNSSR
- binding: binds
